Results are given in words; binding and its absence hold for the method and conditions named. Some binding calls cover weakened binding; strength is not graded here. Where a sequence is shown, tags or fusion partners need not be part of it.
Tests used:
[1] = molecular target: GDF8, O14793; experiment: SPR (retold in Example 3; the ligands are those of the 58th table); conditions: remark: other sources report otherwise
[2] = molecular target: BMP6 (UniProt P22004); experiment: Biacore SPR
[3] = molecular target: T1, GDF11 (UniProt O95390); experiment: Biacore SPR
T1 sequence (looked up): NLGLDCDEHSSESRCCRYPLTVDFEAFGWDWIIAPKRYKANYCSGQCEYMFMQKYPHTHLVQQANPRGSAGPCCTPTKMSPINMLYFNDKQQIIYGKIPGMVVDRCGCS

Sequences of proteins named here, by UniProt entry; tags and fusion partners are left off. Residues count along the entry.
UniProt P22004, residues 382-513: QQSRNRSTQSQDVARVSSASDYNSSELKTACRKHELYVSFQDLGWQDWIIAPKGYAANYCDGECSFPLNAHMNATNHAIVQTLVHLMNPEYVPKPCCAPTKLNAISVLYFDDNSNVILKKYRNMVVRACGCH

[4] = molecular target: T2, GDF8 (UniProt O14793); experiment: Biacore SPR
T2 sequence (looked up): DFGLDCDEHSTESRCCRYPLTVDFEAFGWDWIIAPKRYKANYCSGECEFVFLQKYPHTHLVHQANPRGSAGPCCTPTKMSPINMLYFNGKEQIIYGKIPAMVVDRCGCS

[5] = molecular target: BMP6 (UniProt P22004); experiment: Biacore SPR (legend of FIG. 4)
[6] = molecular target: T1, GDF11; experiment: Biacore SPR (legend of FIG. 4)
[7] = molecular target: T2, GDF8; experiment: Biacore SPR (legend of FIG. 4)
[8] = molecular target: T3, Activin B (UniProt P09529); experiment: Biacore SPR (retold in the reporter-assay paragraph)
T3 sequence (looked up): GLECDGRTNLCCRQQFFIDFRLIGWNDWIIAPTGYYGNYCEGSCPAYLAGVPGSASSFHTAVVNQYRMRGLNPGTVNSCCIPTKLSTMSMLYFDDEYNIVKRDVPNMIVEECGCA

[9] = molecular target: T1, GDF11; experiment: as above
[10] = molecular target: T2, GDF8; experiment: as above

Measured: binding

B1: ALK4-Fc homodimer, P36896 24-126 (Fc fusion, not shown: a dimerising Fc or GST)
chain: SGPRGVQALLCACTSCLQANYTCETDGACMVSIFNLDGMEHHVRTCIPKVELVPAGKPFYCLSSEDLRNTHCCYTDYCNRIDLRVPSGHLKEPEHPSMWGPVE
binds: [1]

B2: ActRIIB-Fc homodimer (Fc fusion, not shown: a dimerising Fc or GST)
chain: GRGEAETRECIYYNANWELERTNQSGLERCEGEQDKRLHCYASWRNSSGTIELVKKGCWLDDFNCYDRQECVATEENPQVYFCCCEGNFCNERFTHLPEAGGPEVTYEPPPTAPT
not listed: [1]
binds: all other assays above

From patent publication US20250084388A1
